PubChem BioAssay AID651640 (Broad Institute, 2012)
Hit rate of the full screen: of about 350,000 compounds, about 6,000 (1.7%) were called active. The shares of active, inactive and inconclusive entries below differ from those in the screen. No stated cut-off is given here; in the data, active means CPE inhibition above about 20% (passing the limit was not always enough); inconclusive means no clear call, values can overlap the other calls; tested in BHK-21 cells.

Assay: protection of cells from dengue 2 killing – plate reader, single concentration, primary screen (AID 651640);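 further: 0% = median of neutral control wells and 100% = median of positive control wells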
Settings: DENV2-infected cells, cytopathic effect rescue, at 9.99 µM, hits give high values
For `CO[C@@H]1CN(C)C(=O)c2ccc(NC(=O)Nc3ccccc3F)cc2OC[C@@H](C)N(C(=O)Nc2ccccc2F)C[C@H]1C`, the CPE inhibition was inconclusive: 58.8%.
In the case of `CO[C@H]1CN(C)C(=O)c2cc(NC(C)=O)ccc2OC[C@H](C)N(C(=O)CC2CC2)C[C@@H]1C`, the CPE inhibition is reported as active: 35.9%.
In the case of `C[C@@H]1CN([C@H](C)CO)C(=O)c2cccc(NS(=O)(=O)c3ccccc3)c2O[C@@H]1CN(C)C(=O)Nc1ccc(F)cc1`, the CPE inhibition is reported as active: 33.6%.
In the case of `C[C@@H]1CN([C@H](C)CO)C(=O)c2cccc(NC(=O)Nc3ccccc3)c2O[C@@H]1CN(C)Cc1ccc(Cl)c(Cl)c1`, the CPE inhibition is reported as active: 75.8%.
With `Cc1cccc(S(=O)(=O)N2C[C@@H]3[C@H](c4ccccc42)[C@@H](CO)N3C(=O)CC2CC2)c1` the CPE inhibition was inconclusive: 21%.
For `O=[N+]([O-])c1ccc(N=Cc2ccc(Br)c([N+](=O)[O-])c2)cc1`, the CPE inhibition was inconclusive: 65.8%.
In the case of `COCC(=O)N1C[C@@H](C)[C@@H](OC)CN(C)C(=O)c2cc(NC(=O)c3ccc(OC)cc3)ccc2OC[C@H]1C`, the CPE inhibition is reported as active: 34.2%.
In the case of `COc1ccccc1S(=O)(=O)N(C)C[C@@H]1Oc2cc(C#CCC(C)C)ccc2S(=O)(=O)N([C@H](C)CO)C[C@H]1C`, the CPE inhibition is reported as inconclusive: 41.6%.
With `Nc1nc2c(ncn2[C@@H]2O[C@H](CNCc3ccc(F)c(N4CCOCC4)c3)[C@@H](O)[C@H]2O)c(=O)[nH]1` the CPE inhibition was active: 25.9%.
For `CN(C(=O)c1cccc(NC(=O)Cc2ccc(NC(=O)C3CCN(C(=O)C4CC4)CC3)cc2)c1)C1CCCC1`, the CPE inhibition was active: 47.4%.
For `O=c1c2ccccc2ncn1CCOCCOc1cccc(Br)c1`, the CPE inhibition was inconclusive: 24.8%.
In the case of `Nc1cccc(O)c1`, the CPE inhibition is reported as active: 21.4%.
With `C[C@@H]1CN([C@H](C)CO)C(=O)c2cccc(NC(=O)CCCCCC(=O)Nc3ccccc3N)c2O[C@H]1CN(C)Cc1ccc(-c2ccccc2)cc1` the CPE inhibition was inactive: -3.54%.
For `COCC(=O)Nc1ccc2c(c1)OC[C@H](C)N(Cc1cccc(F)c1)C[C@H](C)[C@@H](OC)CN(C)C2=O`, the CPE inhibition was active: 24.7%.
For `Cc1ccc(S(=O)(=O)N(C)C[C@@H]2OCCCC[C@@H](C)Oc3ccc(NC(=O)CCCCCC(=O)Nc4ccccc4N)cc3C(=O)N([C@H](C)CO)C[C@@H]2C)cc1`, the CPE inhibition was inconclusive: 26.8%.
For `CCCCn1nnnc1C(c1cccs1)N1CCN(C/C=C/c2ccccc2)CC1` (configuration not stated), the CPE inhibition was inconclusive: 43.3%.
For `Cc1c(O)c(=O)ccn1Cc1ccccc1`, the CPE inhibition was inconclusive: 67%.
In the case of `CNC[C@@H]1Oc2c(NC(=O)c3ccncc3)cccc2C(=O)N([C@@H](C)CO)C[C@@H]1C`, the CPE inhibition is reported as inactive: 1.39%.
In the case of `C[C@H](CO)N1C[C@H](C)[C@H](CN(C)S(C)(=O)=O)Oc2ccc(NC(=O)c3ccncc3)cc2CC1=O`, the CPE inhibition is reported as inactive: -1.49%.
For `CCCCN(CCCNC(=S)NCCCc1cnc[nH]1)c1ccc(Br)cn1`, the CPE inhibition was inactive: 2.97%.
In the case of `COCCNCC(=O)Nc1nc(C)cs1`, the CPE inhibition is reported as inconclusive: 24.8%.
In the case of `C[C@@H]1CN([C@H](C)CO)C(=O)c2cc(C#Cc3ccccc3)cnc2O[C@H]1CN(C)Cc1ccccn1`, the CPE inhibition is reported as inconclusive: 24.8%.
In the case of `C[C@H](CO)N1C[C@H](C)[C@H](CN(C)C(=O)NC2CCCCC2)OCCCC[C@H](C)Oc2ccc(NC(=O)Nc3ccccc3)cc2C1=O`, the CPE inhibition is reported as inactive: -2.56%.
In the case of `COc1ccc(S(=O)(=O)N(C)C[C@H]2OCCCC[C@@H](C)Oc3ccc(NS(=O)(=O)c4ccccc4)cc3C(=O)N([C@@H](C)CO)C[C@H]2C)cc1`, the CPE inhibition is reported as active: 56.4%.
With `C[C@H]1CN([C@@H](C)CO)C(=O)c2cc(NS(=O)(=O)c3cccs3)ccc2O[C@@H]1CN(C)C(=O)Nc1ccccc1` the CPE inhibition was active: 22.2%.
For `N#C[C@@H]1[C@H](c2ccccc2C2=CCCC2)[C@H](CO)N1C(=O)NC1CCCCC1`, the CPE inhibition was inactive: 9.08%.
In the case of `COc1ccccc1NC(=O)NCc1ccco1`, the CPE inhibition is reported as inactive: 5.35%.
In the case of `O=C(Nc1ccc(N2CCOCC2)cc1)c1cccc(-n2cnnc2)c1`, the CPE inhibition is reported as inconclusive: 29.7%.
For `CN(C(=O)COC(=O)c1cccnc1Cl)C1CCCCC1`, the CPE inhibition was inconclusive: 31.1%.
In the case of `C=CCn1c(SCC(=O)NCc2ccco2)nc2sc(C)c(C)c2c1=O`, the CPE inhibition is reported as inactive: -8.93%.
In the case of `COc1cccc(N2C(=O)C3CCCN3C2c2ccc(Cl)cc2)c1` (configuration not stated), the CPE inhibition is reported as inconclusive: 27.4%.
In the case of `N#C[C@H]1[C@H](c2ccccc2-c2ccccc2F)[C@@H](CO)N1C(=O)C1CCC1`, the CPE inhibition is reported as inactive: -0.821%.
In the case of `O=C(Nc1ccc2c(c1)OCO2)N[C@H]1CC[C@H](CCNC(=O)C2CCOCC2)O[C@H]1CO`, the CPE inhibition is reported as inactive: 2.48%.
In the case of `OC[C@H]1O[C@@H](c2nc(-c3ccc(C4OCCO4)cc3)no2)[C@H](O)[C@@H]1O`, the CPE inhibition is reported as inconclusive: 24.3%.
In the case of `Oc1cccc(Nc2c3ccccc3nc3ccccc23)c1`, the CPE inhibition is reported as inactive: 5.02%.
With `O=C(/C=C/c1ccco1)NCC1OCCc2ccccc21` (configuration not stated) the CPE inhibition was inconclusive: 34.7%.
In the case of `COc1ccc(-c2ccc3c(c2)[C@H]2[C@H](CCN2C(=O)CN2CCOCC2)[C@H](CO)N3)cc1`, the CPE inhibition is reported as inconclusive: 46.9%.
In the case of `C/C=C/c1ccc([C@H]2[C@@H](CO)N3CCCCN(C(=O)Nc4ccc(F)cc4)C[C@H]23)cc1`, the CPE inhibition is reported as inconclusive: 35%.
With `CCC(=O)Nc1ccc2c(c1)C(=O)N(C)[C@H]1CC[C@H](CC(=O)NC3Cc4ccccc4C3)O[C@@H]1CO2` the CPE inhibition was inconclusive: 83.1%.
With `COCCn1c(SCC(=O)Nc2ccc3c(c2)OCCO3)nnc1C(C)C` the CPE inhibition was active: 21.7%.
With `Cc1ccc(N=C2C(=O)Nc3ccccc32)cc1C` the CPE inhibition was inconclusive: 60.4%.
In the case of `CN(C)CC(=O)N1[C@H](CO)[C@H](c2ccccc2)C12CN(CCC(F)(F)F)C2`, the CPE inhibition is reported as active: 20.9%.
For `Cc1ccc(-c2ccc3c(c2)O[C@H](CN(C)Cc2ccncc2)[C@H](C)CN([C@H](C)CO)S3(=O)=O)cc1`, the CPE inhibition was inconclusive: 21.4%.
For `CCCCCn1cc(CCC(=O)Nc2ccc(Oc3cccnc3)cc2)c2ccccc21`, the CPE inhibition was inconclusive: 52.3%.
For `C[C@@H]1CN([C@@H](C)CO)C(=O)c2cccc(NS(=O)(=O)c3ccc(Cl)cc3)c2O[C@H]1CN(C)Cc1ccc(Oc2ccccc2)cc1`, the CPE inhibition was inactive: -7.78%.
In the case of `CCCCN(C(=O)c1ccc(COc2ccccc2)o1)c1c(N)n(CC(C)C)c(=O)[nH]c1=O`, the CPE inhibition is reported as inconclusive: 32.3%.
For `O=C(O)c1cc(-c2ccccc2)nn1CC1CC(c2cccc([N+](=O)[O-])c2)=NO1` (configuration not stated), the CPE inhibition was inconclusive: 26.3%.
For `CCNC(=O)[C@@H]1[C@@H](CO)[C@@H]2Cn3c(ccc(-c4cccc(F)c4)c3=O)[C@H]1N2C(C)=O`, the CPE inhibition was inactive: 2.47%.
With `O=C(O)C1=C(C(=O)O)C2CCC1C2` the CPE inhibition was inconclusive: 63.8%.
For `O=C(COC(=O)Cc1ccccc1F)NCCNC(=O)COC(=O)Cc1ccccc1F`, the CPE inhibition was inconclusive: 45.5%.
For `Cc1c(Cc2ccc3c(c2)OCO3)sc(NC(=O)C2CC2)c1C(N)=O`, the CPE inhibition was inactive: -9.17%.
With `C[C@H](CO)N1C[C@H](C)[C@@H](CN(C)C(=O)Nc2cc(F)ccc2F)Oc2ncc(-c3cccc(F)c3)cc2C1=O` the CPE inhibition was inconclusive: 42.8%.
For `C[C@@H]1CN([C@@H](C)CO)C(=O)c2cc(NC(=O)CCCCCC(=O)Nc3ccccc3N)ccc2O[C@H]1CN(C)C(=O)Nc1ccc2c(c1)OCO2`, the CPE inhibition was inactive: 16.2%.
In the case of `CO[C@@H]1CN(C)C(=O)c2cc(NC(=O)Nc3cc(F)ccc3F)ccc2OC[C@H](C)N(C)C[C@@H]1C`, the CPE inhibition is reported as inactive: -0.0135%.
With `CC(C)CC#Cc1ccc([C@@H]2[C@@H](CO)N3C(=O)CN(C(=O)CN4CCOCC4)C[C@@H]23)cc1` the CPE inhibition was inactive: -8.45%.
For `N#Cc1c(-c2ccc(F)cc2)cc(-c2cccnc2)nc1N`, the CPE inhibition was inconclusive: 51.2%.
With `O=C(O)C[C@H]1C[C@@H]2c3cc(NC(=O)CC4CC4)ccc3O[C@@H]2[C@@H](CO)O1` the CPE inhibition was inactive: 0.225%.
With `C[C@H](O)C#Cc1ccc([C@H]2[C@@H](CO)N3CCCCN(C(=O)Nc4ccccc4)C[C@@H]23)cc1` the CPE inhibition was active: 23.1%.
With `CO[C@H]1CN(C)C(=O)c2ccc(NC(=O)Nc3cccc(F)c3)cc2OC[C@H](C)N(C(C)=O)C[C@H]1C` the CPE inhibition was inactive: 7.63%.
With `CN(C)CC#Cc1ccc([C@@H]2[C@@H](CO)N3CCCCN(CC4CCOCC4)C[C@H]23)cc1` the CPE inhibition was inconclusive: 38%.
In the case of `O=C(NCc1ccco1)c1[nH]c(C(F)(F)F)nc1-c1ccccc1`, the CPE inhibition is reported as inconclusive: 63.4%.
In the case of `Cc1ccc(S(=O)(=O)NNC(=O)c2ccc(O)cc2)cc1`, the CPE inhibition is reported as inactive: 4.98%.
In the case of `O=C(COC(=O)COc1cccc(F)c1)Nc1nc2ccccc2s1`, the CPE inhibition is reported as inconclusive: 38.9%.
With `CN1CCN(C(=O)C[C@H]2C[C@H]3c4cc(NC(=O)Nc5ccc(F)cc5)ccc4O[C@H]3[C@@H](CO)O2)CC1` the CPE inhibition was inconclusive: 35.5%.
For `CC1(C(=O)Nc2ccc3nc[nH]c3c2)CCN1C(=O)C1(c2ccccc2)CCCC1` (configuration not stated), the CPE inhibition was inconclusive: 64.7%.
With `O=S1(=O)CCOCCCN1Cc1ccccc1Br` the CPE inhibition was active: 33.4%.
With `Nc1nnc(SCC(=O)Nc2ccc(Cl)c(C(=O)O)c2)s1` the CPE inhibition was inactive: 3.83%.
With `COc1ccc(NC(=O)Nc2ccc3c(c2)CC(=O)N([C@H](C)CO)C[C@H](C)[C@@H](CN(C)C(=O)Nc2ccccc2)O3)cc1` the CPE inhibition was inconclusive: 27.1%.
With `CC(C)(C)c1ccc(OC(=O)N2CCOCC2)cc1` the CPE inhibition was inactive: -5.04%.
In the case of `N#C[C@@H]1[C@@H](c2ccccc2C2=CCCC2)[C@H](CO)N1C(=O)NC1CCCCC1`, the CPE inhibition is reported as inactive: -8.67%.
For `Cc1noc(C)c1NC(=O)N[C@@H]1CC[C@H](CC(=O)NCc2ccc(Cl)c(Cl)c2)O[C@H]1CO`, the CPE inhibition was inconclusive: 25.9%.
In the case of `CCC/C(=C1/c2ccccc2C(=O)N1c1ccccc1)c1c(C)noc1C`, the CPE inhibition is reported as inactive: -3.54%.
